Measurements: patent US11883404B2, “Preparation and composition for treatment of malignant tumors” (TAIHO PHARMACEUTICAL CO., LTD., priority 2016, dated 2024)

Tested on: human small cell lung cancer cell line DMS 114
Experiment: Cell survival rate assay (CellTiter-Glo 2.0), IC50 and combination index of Compound 1 and Compound 2 (Example 15)
Type: cell-based
Settings: each medicine alone, 72 hours
Experimental: A human small cell lung cancer cell line DMS 114 was cultured using a Waymouth's medium containing 10% fetal bovine serum. […] A human small cell lung cancer cell line DMS 114 is reported to have a FGFR1 amplification and AKT1 mutation (S266L, R249W).
Cell survival rate was measured using CellTiter-Glo 2.0 (produced by Promega Corp.). […] After incubation at 37° C. for 24 hours under 5% CO2, 25 μL of a medium containing Compound 1 and Compound 2 or a vehicle (DMSO) was added to each well. The concentration of Compound 1 was set to 9 concentrations of an approximately 3-fold dilution series with 10 μM as the highest final concentration. […] The cell survival rates in medicine addition were calculated as a ratio vs. the control group (100%) according to the following equation: Cell survival rate (%)=(Chemiluminescence intensity at the time of medicine addition)/(Chemiluminescence intensity of the control group)×100
Combinations of Compound 1 and Compound 2 concentrations that attained Fa=0.5 (corresponding to ED50), 0.75 (corresponding to ED75), or 0.9 (corresponding to ED90) were extracted on the basis of the Fa values in the DMS 114 cells calculated from the combined Compound 1 and Compound 2 concentrations, and applied to linear curve fitting using CalcuSyn (HULINKS Inc.) to obtain CI.

How did the IC50 turn out when `C=CC(=O)N1CC[C@H](n2nc(C#Cc3cc(OC)cc(OC)c3)c3c(N)ncnc32)C1` [Compound 1, (S)-1-(3-(4-Amino-3-((3,5-dimethoxyphenyl)ethynyl)-1H-pyrazolo[3,4-d]pyrimidin-1-yl)pyrrolidin-1-yl)prop-2-en-1-one] was run?
Its IC50 is 14.6 nM.
